## Library screening results

Values are the deposited “Percent Effect”, in %. How 0% and 100% were set is not recorded. Most values in the screen are low, and negative values occur. Compounds were drawn at random from those tested, without regard to their results. A dash means the value is not listed here; it may have been measured.

Mtb growth Cornell: 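Whole-cell assay for inhibitors of Mycobacterium tuberculosis growth, labelled Cornell in the record; the read-out is not stated. The concentration is filed as 10 mM, unlikely as a test dose, so the dose is not known. The record gives no direction; compounds strong in two other growth screens of this library score well above the rest, so higher reads as stronger inhibition. Of about 53,000 compounds tested this way, about 900 (1.7%) reached 50% or more in at least one test.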
Mtb heat-shock: 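Assay on Mycobacterium tuberculosis, filed only as a heat shock assay from Cornell; the read-out is not stated. The concentration is filed as 10 mM, unlikely as a test dose, so the dose is not known. Higher reads as stronger inhibition (inferred: compounds with an IC50 in retests scored well above the rest). Of about 69,000 compounds tested this way, about 930 (1.4%) reached 50% or more in at least one test.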

Compound	Mtb growth Cornell	Mtb heat-shock
O=C(CCc1nc(C2CC2)no1)c1ccccc1	4.839%	8.259%
CC(C)c1nnc2n1CCN(C(=O)c1ccc(N(C)C)nn1)C2	-	-1.724%
COc1c(Br)c(CC2CC(CO)=NO2)c(Br)c2c1OCO2 (stereo unspecified)	16.21%	7.618%
Cn1ncc2c(N3CCN4CCCCC4C3)nc(C3CCCC3)nc21 (stereo unspecified)	27.57%	0.5853%
O=C(CCCc1nc2ccccc2[nH]1)N1CCCC1c1ccncc1 (stereo unspecified)	-25.38%	13.35%
CCN1CC2(CCC1=O)CCN(C(=O)C(O)c1cccc(Cl)c1)CC2 (stereo unspecified)	9.916%	-13.27%
CC(C)c1cc(C(=O)N2CCCC2c2nc(-c3ccccc3)no2)[nH]n1 (stereo unspecified)	-	-16.6%
CCC(C)NC(=O)c1cc(S(N)(=O)=O)c(Br)s1 (stereo unspecified)	-	0.02585%
[H][C@@]12CCCO[C@]1([H])[C@@H](Oc1cccnc1)CN2C(=O)c1ccnnc1	8.79%	6.965%
Cc1ncc(CNC(=O)Cc2ccsc2)c(C2CCCN2C)n1 (stereo unspecified)	11.73%	-6.825%
CC(C)(C)OC(=O)N1CCC(NC2CCS(=O)(=O)C2)CC1 (stereo unspecified)	36.01%	-7.172%
Cc1cccc(N(CCC(N)=O)C(=O)c2ccnc(C)n2)c1	7.02%	-2.452%
Nc1nccc(N[C@H]2CN(CC(=O)NC3CCCCC3)C[C@@H]2C2CC2)n1	-0.8865%	-14.09%
O=C(Cc1noc(C(=O)NCC2CC2)n1)Nc1cccc(C(F)(F)F)c1	2.614%	22.04%
Cc1nccn1C1CCCN(C(=O)c2ccc3c(c2)CCC3)C1 (stereo unspecified)	15.42%	-7.392%
COCC(=O)Nc1cc(Br)cnc1OCC(F)(F)F	-	-33.06%
CCn1cnnc1C1CCN(C(=O)c2ccc3ccccc3n2)CC1	40.49%	13.37%
CN(c1ncccc1C#N)C1CCN(Cc2ccncc2)CC1	-7.931%	-18.39%
O=C(c1ccccc1F)N1CCCC1Cn1c(=O)oc2ccccc21 (stereo unspecified)	22.41%	0.915%
O=C(c1ccoc1)N1CCCn2nnc(COCC3CC3)c2C1	4.017%	-11.64%
O=C(NCC(O)c1ccoc1)Nc1c(F)cccc1F (stereo unspecified)	6.365%	0.9374%
CC(C)(C)c1nc(CN(CCC2CCCCC2)CC(N)=O)no1	-39.95%	-12.09%
CC(O)CN1CCN(Cc2csc(-c3ncccn3)n2)CC1 (stereo unspecified)	1.503%	7.996%
Cc1cccc(NC(=O)NCC2(N3CCOCC3)CCSC2)c1 (stereo unspecified)	-54.86%	-25.57%
CN(C)C(=O)CN1CCC2(CC1)CN(S(C)(=O)=O)Cc1ccccc1O2	-29.33%	-3.323%
Cc1nc(CCCNC(=O)C2CC(=O)N(C3CC3)C2)sc1C (stereo unspecified)	6.991%	-7.411%
N#Cc1ccccc1CN1CCC(CN2CCOCC2)C1 (stereo unspecified)	9.035%	2.889%
Cc1cccc(NS(=O)(=O)c2ccc(C#N)nc2)c1C#N	105.8%	8.859%
O=C(NCCn1ccc(-c2ccncc2)n1)c1ccc2c(c1)OCO2	-6.704%	5.761%
O=C(NCCCn1nc2ccccn2c1=O)NCCC1CCC1	18.83%	21.64%
N#CCCn1cnc2c(F)cc(Br)cc2c1=O	-2.364%	-11.5%
Cc1cc(N2CCN(C(=O)Cc3c(C)nc(C)[nH]c3=O)CC2)cc(C)n1	-	-12.87%
Cn1cnnc1C1CCCN(C(=O)COc2ccccc2Cl)C1 (stereo unspecified)	-	12.49%
Cn1cc(C[C@H]2[C@H](N3CCOCC3)CCN2C2CCOCC2)cn1.O=C(O)C(F)(F)F.O=C(O)C(F)(F)F	-9.726%	-8.565%
COc1ccc(C(=O)C2CCCN(Cc3ccccc3O)C2)c(OC)c1 (stereo unspecified)	-4.504%	6.805%
CCN(Cc1nc2c(cnn2C)c(=O)[nH]1)Cc1ccccc1C	-29.29%	-5.789%
Cc1ccccc1C1CCCN1Cc1nc2c(cnn2C)c(=O)[nH]1 (stereo unspecified)	-	-11.52%
Cc1cc(CN2CCN(c3ccnc(-c4ccccc4)n3)CC2)no1	24.07%	18.71%
Cc1ccc(C(C(=O)NC(C)(C)CN2CCCC2)N(C)C)cc1 (stereo unspecified)	-15.17%	-39.74%
CC(NC(=O)CCn1cccn1)c1cn(-c2ccccc2)nn1 (stereo unspecified)	16.97%	-19.16%
Cc1[nH]ncc1CCCNC(=O)N1CCOC(C)C1 (stereo unspecified)	2.948%	17.69%
Cn1cc(NC(=O)C2CC(=O)N(c3n[nH]c4cccc(F)c34)C2)cn1 (stereo unspecified)	-30.85%	-5.285%
Cc1cc(C(=O)N2CCC(c3nnc(Cn4ccnc4)n3C)CC2)cs1	6.692%	-2.582%
Cc1nc(CN2CCC(C(=O)O)(n3ccc(-c4ccco4)n3)CC2)co1	-29.4%	8.732%
CCc1cc(NC2CCS(=O)(=O)CC2)nc(N2CCCCC2)n1	-24.69%	-6.327%
Cn1ccnc1CN(CCO)C(=O)c1cnc2ccccc2c1	-	6.986%
Cc1nc(CCN)cc(N2CCCN(C(=O)c3ccco3)CC2)n1	24.68%	3.435%
Cc1nc(CN2CC[C@H](OCC3CC3)[C@@H]2Cc2cccnc2)cs1.O=C(O)C(F)(F)F.O=C(O)C(F)(F)F	-	-0.4353%
Cc1cc(C)nc(N(C)CCn2ccnc2C)n1	-3.472%	3.474%
CN(C)C(=O)N1CCN(C(=O)Nc2nc(-c3ccccc3)ns2)CC1	40.53%	15.64%
[H][C@@]12CN(C(=O)c3cccn3C)C[C@]1([H])C(=O)N(CC(C)C)C2	-4.349%	1.08%
[H][C@@]12C[C@@H](c3ccncn3)O[C@]1([H])CN(C(=O)c1c(C)noc1C)C2	12.71%	4.726%
Cc1noc(C)c1-c1cccc(CC2CCN(C(=O)c3cc[nH]n3)C2)n1 (stereo unspecified)	-	8.154%
Cc1nc(C(C)N2Cc3ncccc3C2=O)cs1 (stereo unspecified)	12.56%	-5.287%
CC(C(=O)N1CCCN(Cc2cscn2)CC1)N1CCOCC1 (stereo unspecified)	-	16.79%
CC(C)NC(=O)N1CCC2(CC(=O)N(c3cccc(C#N)c3)C2)C1 (stereo unspecified)	-1.22%	-7.36%
Cc1cccc(CN2CC3C[C@]3(NC(=O)c3cccc(F)c3)C2)n1.O=C(O)C(F)(F)F (stereo partly specified)	38.38%	-0.2662%

The first 4 entries again:

{"compound": "O=C(CCc1nc(C2CC2)no1)c1ccccc1", "Mtb growth Cornell": 4.839, "Mtb heat-shock": 8.259}
{"compound": "CC(C)c1nnc2n1CCN(C(=O)c1ccc(N(C)C)nn1)C2", "Mtb heat-shock": -1.724}
{"compound": "COc1c(Br)c(CC2CC(CO)=NO2)c(Br)c2c1OCO2", "stereo": "stereo unspecified", "Mtb growth Cornell": 16.21, "Mtb heat-shock": 7.618}
{"compound": "Cn1ncc2c(N3CCN4CCCCC4C3)nc(C3CCCC3)nc21", "stereo": "stereo unspecified", "Mtb growth Cornell": 27.57, "Mtb heat-shock": 0.5853}

From ChEMBL document CHEMBL3988442, “University of Dundee, Small-Polar-MMV Screening Library” (2021).